Results published in patent publication US20150045266A1, “IONIC LIQUID AS LUBRICATING OIL BASE STOCKS, COBASE STOCKS AND MULTIFUNCTIONAL FUNCTIONAL FLUIDS” (ExxonMobil Research and Engineering Company, priority 2012, published 2015).
Some of these results come from one statement about several compounds together.

Experiment: Thermal stability by thermogravimetric analysis (TGA)
Format: physicochemical
Settings: temperature at 50% weight loss

SMILES	50% wt. loss (TGA)
CCCCCCCC[N+](CCCCCCCC)(CCCCCCCC)CCCCCCCC [Example 1, tetraoctylammonium bis(trifluoromethanesulfonyl)imide]	greater than 390 °C
CCCCCCCCCC[n+]1ccn(C)c1 [Example 5, 1-methyl-3-decylimidazolium bis(trifluoromethanesulfonyl)imide]	greater than 400 °C
CCCCCCCCCCCCCCCC[n+]1ccn(CCCC)c1 [Example 11, 1-butyl-3-hexadecylimidazolium bis(trifluoromethanesulfonyl)imide]	greater than 400 °C
CCCCCCCCCC[n+]1ccn(CCCC)c1 [Example 9, 1-butyl-3-decylimidazolium bis(trifluoromethanesulfonyl)imide]	greater than 400 °C
CCCCCCCCCCCCCCCC[n+]1ccn(C)c1 [Example 7, 1-methyl-3-hexadecylimidazolium bis(trifluoromethanesulfonyl)imide]	greater than 400 °C
CCCCCCCCCC[N+](CCCCCCCCCC)(CCCCCCCCCC)CCCCCCCCCC [Example 2, tetradecylammonium bis(trifluoromethanesulfonyl)imide]	greater than 390 °C
CCCCCCCCCC[n+]1ccn(Cc2ccccc2)c1 [Example 13, 1-benzyl-3-decylimidazolium bis(trifluoromethanesulfonyl)imide]	greater than 400 °C
